The other results are listed elsewhere or left out.
Compound: Cc1cc(ccc1-c1ccccc1)C(=O)N1CCCN(CC1)C(=O)CCl [compound 10]
Test: probe-labelled cysteine peptide fold change vs DMSO (competition) (log2 fold change); higher = less target engagement (more negative = stronger competition)
Details: THP-1, incubation time: 4 h
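Further: competitive profiling in live THP-1 cells: cysteine peptides tagged with an iodoacetamide desthiobiotin (IA-DTB) probe, intensity after compound treatment relative to DMSO-treated cells.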

Sequences of proteins named here, by UniProt entry; tags and fusion partners are left off. A change or cut given only in a name is not applied to a line headed by its entry.
UniProt P52732: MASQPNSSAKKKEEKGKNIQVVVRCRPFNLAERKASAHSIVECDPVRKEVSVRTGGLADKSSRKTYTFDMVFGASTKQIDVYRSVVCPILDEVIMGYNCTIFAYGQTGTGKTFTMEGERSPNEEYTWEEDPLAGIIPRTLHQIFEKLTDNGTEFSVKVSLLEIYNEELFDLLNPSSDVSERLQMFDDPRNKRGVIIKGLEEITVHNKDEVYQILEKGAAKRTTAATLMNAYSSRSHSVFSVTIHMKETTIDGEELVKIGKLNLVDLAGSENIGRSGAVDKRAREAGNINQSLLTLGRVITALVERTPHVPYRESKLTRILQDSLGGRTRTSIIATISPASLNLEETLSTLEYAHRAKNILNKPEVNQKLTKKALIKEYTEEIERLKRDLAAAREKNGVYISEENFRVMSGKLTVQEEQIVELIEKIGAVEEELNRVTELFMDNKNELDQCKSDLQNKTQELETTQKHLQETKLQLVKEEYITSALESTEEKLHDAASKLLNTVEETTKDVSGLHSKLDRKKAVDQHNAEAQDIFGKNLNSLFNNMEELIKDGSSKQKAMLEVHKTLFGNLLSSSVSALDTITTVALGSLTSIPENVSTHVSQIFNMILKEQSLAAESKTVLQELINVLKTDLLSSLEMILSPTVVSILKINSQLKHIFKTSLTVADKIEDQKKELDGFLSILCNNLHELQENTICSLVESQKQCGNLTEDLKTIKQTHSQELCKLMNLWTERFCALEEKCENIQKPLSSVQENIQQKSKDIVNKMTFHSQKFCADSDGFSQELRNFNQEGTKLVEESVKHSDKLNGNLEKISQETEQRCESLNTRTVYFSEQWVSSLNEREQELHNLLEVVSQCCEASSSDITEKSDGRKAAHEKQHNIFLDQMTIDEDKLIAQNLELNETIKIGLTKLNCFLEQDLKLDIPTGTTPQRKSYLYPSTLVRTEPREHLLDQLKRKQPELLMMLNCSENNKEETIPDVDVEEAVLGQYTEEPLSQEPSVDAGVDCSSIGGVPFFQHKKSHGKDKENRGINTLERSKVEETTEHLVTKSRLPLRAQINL
UniProt Q9NS87: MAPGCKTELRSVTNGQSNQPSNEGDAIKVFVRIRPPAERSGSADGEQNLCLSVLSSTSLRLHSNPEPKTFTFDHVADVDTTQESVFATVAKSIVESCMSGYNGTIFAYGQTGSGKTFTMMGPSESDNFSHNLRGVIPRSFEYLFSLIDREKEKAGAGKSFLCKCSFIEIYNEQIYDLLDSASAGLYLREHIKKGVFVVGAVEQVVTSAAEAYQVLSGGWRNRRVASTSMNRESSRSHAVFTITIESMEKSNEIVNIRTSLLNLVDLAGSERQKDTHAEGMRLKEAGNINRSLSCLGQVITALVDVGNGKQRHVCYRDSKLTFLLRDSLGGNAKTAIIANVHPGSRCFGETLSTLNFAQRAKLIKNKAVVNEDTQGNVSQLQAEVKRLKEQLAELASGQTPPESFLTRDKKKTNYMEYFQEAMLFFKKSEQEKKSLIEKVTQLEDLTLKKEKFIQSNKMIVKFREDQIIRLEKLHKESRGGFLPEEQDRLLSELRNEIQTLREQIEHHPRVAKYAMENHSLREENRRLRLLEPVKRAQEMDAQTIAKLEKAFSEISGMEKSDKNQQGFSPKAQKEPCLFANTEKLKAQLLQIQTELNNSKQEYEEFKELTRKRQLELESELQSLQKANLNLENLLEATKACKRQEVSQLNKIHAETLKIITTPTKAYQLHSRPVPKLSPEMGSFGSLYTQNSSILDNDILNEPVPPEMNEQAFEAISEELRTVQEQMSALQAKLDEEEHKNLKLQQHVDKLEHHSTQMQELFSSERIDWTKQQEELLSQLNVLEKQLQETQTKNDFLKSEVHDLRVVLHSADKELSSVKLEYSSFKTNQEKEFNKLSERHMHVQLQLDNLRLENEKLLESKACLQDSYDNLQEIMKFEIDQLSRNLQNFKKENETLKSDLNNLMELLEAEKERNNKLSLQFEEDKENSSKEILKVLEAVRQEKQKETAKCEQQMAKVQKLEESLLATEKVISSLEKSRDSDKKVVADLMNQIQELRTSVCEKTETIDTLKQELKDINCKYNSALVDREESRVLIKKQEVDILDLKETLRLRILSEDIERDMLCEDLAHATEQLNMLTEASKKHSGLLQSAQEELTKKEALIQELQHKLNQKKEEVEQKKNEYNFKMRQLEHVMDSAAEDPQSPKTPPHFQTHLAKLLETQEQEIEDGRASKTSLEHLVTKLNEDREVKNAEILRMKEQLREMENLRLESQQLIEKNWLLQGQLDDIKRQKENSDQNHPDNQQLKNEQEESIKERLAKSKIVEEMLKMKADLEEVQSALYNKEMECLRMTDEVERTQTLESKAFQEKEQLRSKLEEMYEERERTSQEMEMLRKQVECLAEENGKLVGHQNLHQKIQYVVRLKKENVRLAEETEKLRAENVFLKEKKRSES
UniProt Q8NHM5: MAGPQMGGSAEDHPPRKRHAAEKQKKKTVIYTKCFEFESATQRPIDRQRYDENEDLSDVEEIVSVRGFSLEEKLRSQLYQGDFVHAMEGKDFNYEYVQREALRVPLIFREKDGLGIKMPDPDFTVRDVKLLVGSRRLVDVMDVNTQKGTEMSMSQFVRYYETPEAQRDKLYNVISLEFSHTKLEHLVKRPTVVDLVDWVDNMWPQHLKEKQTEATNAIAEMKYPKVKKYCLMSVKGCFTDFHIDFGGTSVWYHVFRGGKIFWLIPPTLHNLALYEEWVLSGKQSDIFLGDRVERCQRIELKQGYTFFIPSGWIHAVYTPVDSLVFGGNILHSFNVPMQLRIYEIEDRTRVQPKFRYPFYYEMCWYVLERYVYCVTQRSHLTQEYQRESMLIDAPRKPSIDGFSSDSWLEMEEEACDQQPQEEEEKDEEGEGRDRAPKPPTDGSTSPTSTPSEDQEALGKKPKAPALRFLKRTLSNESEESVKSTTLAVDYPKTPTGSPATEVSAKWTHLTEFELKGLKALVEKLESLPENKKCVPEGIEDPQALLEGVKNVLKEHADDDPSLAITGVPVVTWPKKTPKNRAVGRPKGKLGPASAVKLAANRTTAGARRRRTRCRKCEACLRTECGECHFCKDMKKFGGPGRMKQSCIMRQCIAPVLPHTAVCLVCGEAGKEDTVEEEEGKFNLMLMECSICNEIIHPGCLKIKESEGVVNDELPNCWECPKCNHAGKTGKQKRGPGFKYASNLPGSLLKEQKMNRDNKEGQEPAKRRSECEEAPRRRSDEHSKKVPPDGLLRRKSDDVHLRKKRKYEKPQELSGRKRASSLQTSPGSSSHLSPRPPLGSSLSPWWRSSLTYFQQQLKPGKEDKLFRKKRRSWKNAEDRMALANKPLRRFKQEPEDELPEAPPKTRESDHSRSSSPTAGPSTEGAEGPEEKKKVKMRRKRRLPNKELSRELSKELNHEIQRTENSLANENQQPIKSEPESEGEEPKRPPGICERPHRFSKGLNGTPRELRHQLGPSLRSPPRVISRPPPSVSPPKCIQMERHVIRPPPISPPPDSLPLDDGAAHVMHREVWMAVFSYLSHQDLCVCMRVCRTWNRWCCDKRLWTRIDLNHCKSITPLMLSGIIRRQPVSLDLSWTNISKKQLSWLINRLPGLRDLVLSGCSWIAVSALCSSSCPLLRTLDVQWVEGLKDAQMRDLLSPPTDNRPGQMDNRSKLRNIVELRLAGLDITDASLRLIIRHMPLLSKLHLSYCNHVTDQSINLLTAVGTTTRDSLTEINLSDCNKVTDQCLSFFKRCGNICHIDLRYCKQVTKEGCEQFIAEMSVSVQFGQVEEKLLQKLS
UniProt Q14643, whole entry, looked up: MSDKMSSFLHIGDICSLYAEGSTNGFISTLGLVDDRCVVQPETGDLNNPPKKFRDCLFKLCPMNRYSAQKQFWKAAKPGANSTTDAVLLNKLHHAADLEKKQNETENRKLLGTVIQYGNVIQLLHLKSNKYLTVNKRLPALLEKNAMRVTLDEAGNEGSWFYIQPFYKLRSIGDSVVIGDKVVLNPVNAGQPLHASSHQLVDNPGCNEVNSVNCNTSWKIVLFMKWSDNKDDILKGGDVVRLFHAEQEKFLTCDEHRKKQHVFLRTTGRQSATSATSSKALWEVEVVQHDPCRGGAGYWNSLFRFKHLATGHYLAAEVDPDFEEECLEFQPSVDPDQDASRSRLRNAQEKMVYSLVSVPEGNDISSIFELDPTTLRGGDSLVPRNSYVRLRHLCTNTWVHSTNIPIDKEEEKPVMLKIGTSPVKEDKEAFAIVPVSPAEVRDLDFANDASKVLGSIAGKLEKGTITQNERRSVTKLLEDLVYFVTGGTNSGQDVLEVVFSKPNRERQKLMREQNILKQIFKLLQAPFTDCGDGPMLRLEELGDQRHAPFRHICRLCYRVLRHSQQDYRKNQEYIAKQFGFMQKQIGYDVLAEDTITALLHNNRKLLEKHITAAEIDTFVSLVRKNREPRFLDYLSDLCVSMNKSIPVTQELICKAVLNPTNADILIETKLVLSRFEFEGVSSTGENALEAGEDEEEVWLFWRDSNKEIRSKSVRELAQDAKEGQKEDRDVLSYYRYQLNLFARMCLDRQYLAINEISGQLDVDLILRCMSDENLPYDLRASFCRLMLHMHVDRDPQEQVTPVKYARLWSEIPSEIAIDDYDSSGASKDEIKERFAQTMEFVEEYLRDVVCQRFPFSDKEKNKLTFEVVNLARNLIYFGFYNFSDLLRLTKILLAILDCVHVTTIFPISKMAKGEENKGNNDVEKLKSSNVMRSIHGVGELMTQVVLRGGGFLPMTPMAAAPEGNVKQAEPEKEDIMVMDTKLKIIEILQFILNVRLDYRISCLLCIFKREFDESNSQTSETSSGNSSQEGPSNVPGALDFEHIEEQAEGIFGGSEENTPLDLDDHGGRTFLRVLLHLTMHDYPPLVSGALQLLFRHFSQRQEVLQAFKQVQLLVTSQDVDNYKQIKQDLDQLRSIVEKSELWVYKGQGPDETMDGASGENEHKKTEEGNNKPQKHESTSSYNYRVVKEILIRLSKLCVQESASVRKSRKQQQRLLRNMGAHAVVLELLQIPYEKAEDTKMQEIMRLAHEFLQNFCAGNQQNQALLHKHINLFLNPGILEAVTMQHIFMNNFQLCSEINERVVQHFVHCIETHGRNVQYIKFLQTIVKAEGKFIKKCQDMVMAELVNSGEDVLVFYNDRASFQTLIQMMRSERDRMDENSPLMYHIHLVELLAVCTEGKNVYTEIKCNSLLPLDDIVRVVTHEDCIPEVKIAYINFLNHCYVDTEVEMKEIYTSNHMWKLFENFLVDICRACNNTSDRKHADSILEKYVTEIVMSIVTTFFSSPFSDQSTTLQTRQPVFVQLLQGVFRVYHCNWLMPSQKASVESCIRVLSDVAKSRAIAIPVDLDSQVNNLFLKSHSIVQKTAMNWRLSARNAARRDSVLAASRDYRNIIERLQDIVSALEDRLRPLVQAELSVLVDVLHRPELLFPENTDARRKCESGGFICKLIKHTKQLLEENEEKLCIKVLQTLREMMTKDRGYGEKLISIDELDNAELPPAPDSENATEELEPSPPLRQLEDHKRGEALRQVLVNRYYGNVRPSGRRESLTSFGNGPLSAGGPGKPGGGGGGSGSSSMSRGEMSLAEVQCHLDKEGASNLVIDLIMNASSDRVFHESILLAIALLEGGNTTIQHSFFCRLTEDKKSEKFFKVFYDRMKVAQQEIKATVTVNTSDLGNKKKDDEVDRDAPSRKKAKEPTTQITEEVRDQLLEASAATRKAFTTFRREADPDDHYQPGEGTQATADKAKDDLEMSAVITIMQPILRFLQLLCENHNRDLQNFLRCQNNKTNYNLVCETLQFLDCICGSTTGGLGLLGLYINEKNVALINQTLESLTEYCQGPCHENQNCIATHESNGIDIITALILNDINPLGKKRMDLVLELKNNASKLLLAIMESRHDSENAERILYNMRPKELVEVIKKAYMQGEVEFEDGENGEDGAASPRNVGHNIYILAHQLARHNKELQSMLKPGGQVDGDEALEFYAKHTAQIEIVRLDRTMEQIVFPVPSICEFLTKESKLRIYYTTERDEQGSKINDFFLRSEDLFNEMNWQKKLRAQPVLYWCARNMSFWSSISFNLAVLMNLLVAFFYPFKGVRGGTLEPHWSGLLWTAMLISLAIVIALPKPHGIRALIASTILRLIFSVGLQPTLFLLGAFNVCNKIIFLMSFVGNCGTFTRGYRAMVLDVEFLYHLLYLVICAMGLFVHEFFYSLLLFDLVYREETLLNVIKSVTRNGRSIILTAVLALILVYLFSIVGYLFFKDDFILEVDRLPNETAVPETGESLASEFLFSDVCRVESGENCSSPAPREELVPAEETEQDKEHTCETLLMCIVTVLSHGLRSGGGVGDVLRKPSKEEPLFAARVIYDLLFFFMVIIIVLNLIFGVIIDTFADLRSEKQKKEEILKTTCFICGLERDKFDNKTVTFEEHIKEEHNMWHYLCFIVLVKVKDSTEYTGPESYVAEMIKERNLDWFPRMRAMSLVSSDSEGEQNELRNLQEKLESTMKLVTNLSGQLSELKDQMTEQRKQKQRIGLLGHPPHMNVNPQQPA

Row | Target | probe-labelled cysteine peptide fold change (10 µM) | probe-labelled cysteine peptide fold change (50 µM)
1 | KANK1_Q14678_1292_LLLAQPGCNGHLEDNDGSTALSIALEAGHK (UniProt Q14678) | 0.314 | 0.546
2 | KIAA0586_Q9BVV6_293_YSVKPEHPNLGSCNPSLYNTFASK (UniProt Q9BVV6) | 0.0249 | 0.122
3 | KIF11_P52732_704_QCGNLTEDLK (UniProt P52732) | 0.0939 | 0.172
4 | KIF11_P52732_25_CRPFNLAER (UniProt P52732) | 0.108 | -0.0649
5 | KIF15_Q9NS87_1335_QVECLAEENGK (UniProt Q9NS87) | -0.0868 | -0.0677
6 | KDM2B_Q8NHM5_991_RPPGICERPHR (UniProt Q8NHM5) | -0.279 | -0.172
7 | KIAA1109_Q2LD37_3091_CVAEVGSFEHNLTTDLLNHLVFVQK (UniProt Q2LD37) | 0.244 | 0.178
8 | KAT6A_Q92794_508_CPSVIEFGK (UniProt Q92794) | -0.105 | 0.167
9 | KEAP1_Q14145_288_CEILQSDSR (UniProt Q14145) | -0.267 | -0.999
10 | KDELC2_Q7Z4H8_495+497_DGMELVPQPEDSTAICQCHR (UniProt Q7Z4H8) | -0.554 | -0.631
11 | KIF15_Q9NS87_1284_EMECLR (UniProt Q9NS87) | 0.0325 | 0.0108
12 | KIF14_Q15058_508_IHDLLVCK (UniProt Q15058) | -0.0541 | 0.0888
13 | KCNAB2_Q13303_212_QFNLTPPICEQAEYHMFQR (UniProt Q13303) | -0.0555 | 0.0233
14 | ITPR1_Q14643_1197_LCVQESASVR (UniProt Q14643) | 0.236 | 0.11

Random excerpt: 2 entries already listed
Row | Target | probe-labelled cysteine peptide fold change (10 µM) | probe-labelled cysteine peptide fold change (50 µM)
14 | ITPR1_Q14643_1197_LCVQESASVR (UniProt Q14643) | 0.236 | 0.11
6 | KDM2B_Q8NHM5_991_RPPGICERPHR (UniProt Q8NHM5) | -0.279 | -0.172
